The results in this text go back to publication PMC5519194.

For the assay, the target named is 6myc-HAS2 (hyaluronan synthase 2, wild type) (UniProt Q92819). In words: immunoblot after SDS-PAGE; lysates of HEK293T cells expressing 6myc-HAS2, blot with anti-myc; bands of 130-140 kDa beside the 70 kDa band. Background: A western blot detects proteins with antibodies after separation by electrophoresis.

These are yes or no findings as the source states them, for the method shown. Some results given as binding are weak or reduced against the parent protein; the word gives no strength. Where a sequence is shown, tags or fusion partners need not be part of it.

B1: 6myc-HAS2 (hyaluronan synthase 2, wild type) (enzyme, UniProt Q92819 1-552)
chain: MHCERFLCILRIIGTTLFGVSLLLGITAAYIVGYQFIQTDNYYFSFGLYGAFLASHLIIQSLFAFLEHRKMKKSLETPIKLNKTVALCIAAYQEDPDYLRKCLQSVKRLTYPGIKVVMVIDGNSEDDLYMMDIFSEVMGRDKSATYIWKNNFHEKGPGETDESHKESSQHVTQLVLSNKSICIMQKWGGKREVMYTAFRALGRSVDYVQVCDSDTMLDPASSVEMVKVLEEDPMVGGVGGDVQILNKYDSWISFLSSVRYWMAFNIERACQSYFGCVQCISGPLGMYRNSLLHEFVEDWYNQEFMGNQCSFGDDRHLTNRVLSLGYATKYTARSKCLTETPIEYLRWLNQQTRWSKSYFREWLYNAMWFHKHHLWMTYEAIITGFFPFFLIATVIQLFYRGKIWNILLFLLTVQLVGLIKSSFASCLRGNIVMVFMSLYSVLYMSSLLPAKMFAIATINKAGWGTSGRKTIVVNFIGLIPVSVWFTILLGGVIFTIYKESKRPFSESKQTVLIVGTLLYACYWVMLLTLYVVLINKCGRRKKGQQYDMVLDV
For the molecule B1, the binding result is given as “binds”.
